{"source": "PubChem BioAssay AID686938 (Drosophila RNAi Screening Center, 2013)", "screen": "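Fly genes required for calcium entry once internal stores are emptied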 (primary screen)", "cell system": "Drosophila S2R+ cells", "reagent": "long dsRNA against Drosophila genes, about 0.25 µg dsRNA per well, roughly 10,000 cells", "timing": "5 days of knock-down before the calcium assay", "treatment": "thapsigargin (SERCA pump blocker) to empty calcium stores; entry signal taken 4 min after adding it", "measured": "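Duplicate raw fluo-4 intensities per well from a plate reader, at rest and four minutes after thapsigargin emptied calcium stores; entry-to-rest ratio filled for only some wells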", "scale": "calcium entry signal: higher = stronger calcium signal after store depletion; entry to resting ratio: higher = more calcium entry relative to resting level; resting calcium signal: higher = higher resting calcium signal", "rule for the call": "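Called when the plate z-score of the entry-to-rest ratio, mean of duplicates, falls below −3; wells with low overall dye signal (Fmax z below −2) or more than five off-targets excluded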", "meaning of the calls": "active = strongly reduced calcium entry; inactive = no strong reduction", "note": "In all, the deposit lists about 23,000 reagents; below is a random part of those that have a named target and a result. Of all reagents, 75 (0.33%) were called active. 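Raw plate signals without normalisation; calls rest on plate z-scores that were not deposited; ratio present for only 364 wells.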 Unmarked entries are inactive. No sequences are given here. Not stated in the record: the dose of the treatment."}
{"predicted target": "Slbp (GeneID 43448)", "amplicon": "DRSC16863", "calcium entry signal, replicate 1 (fluorescence units)": 2.45e7, "calcium entry signal, replicate 2 (fluorescence units)": 2.97e7, "resting calcium signal, replicate 1 (fluorescence units)": 1.33e7, "resting calcium signal, replicate 2 (fluorescence units)": 1.43e7}
{"predicted target": "CG31262 (GeneID 318649)", "amplicon": "DRSC13216", "calcium entry signal, replicate 1 (fluorescence units)": 3.45e7, "calcium entry signal, replicate 2 (fluorescence units)": 3.23e7, "resting calcium signal, replicate 1 (fluorescence units)": 1.72e7, "resting calcium signal, replicate 2 (fluorescence units)": 1.54e7}
{"predicted target": "CG3009 (GeneID 31402)", "amplicon": "DRSC18263", "calcium entry signal, replicate 1 (fluorescence units)": 2.76e7, "calcium entry signal, replicate 2 (fluorescence units)": 2.63e7, "resting calcium signal, replicate 1 (fluorescence units)": 1.21e7, "resting calcium signal, replicate 2 (fluorescence units)": 1.25e7}
{"predicted target": "CG6073 (GeneID 43180)", "amplicon": "DRSC15962", "calcium entry signal, replicate 1 (fluorescence units)": 3.18e7, "calcium entry signal, replicate 2 (fluorescence units)": 5.16e7, "resting calcium signal, replicate 1 (fluorescence units)": 1.48e7, "resting calcium signal, replicate 2 (fluorescence units)": 2.60e7}
{"predicted target": "CG6073 (GeneID 43180)", "amplicon": "DRSC22742", "calcium entry signal, replicate 1 (fluorescence units)": 4.15e7, "calcium entry signal, replicate 2 (fluorescence units)": 3.68e7, "resting calcium signal, replicate 1 (fluorescence units)": 2.36e7, "resting calcium signal, replicate 2 (fluorescence units)": 1.91e7}
{"predicted target": "CG7766 (GeneID 31839)", "amplicon": "DRSC18424", "calcium entry signal, replicate 1 (fluorescence units)": 3.15e7, "calcium entry signal, replicate 2 (fluorescence units)": 3.20e7, "resting calcium signal, replicate 1 (fluorescence units)": 1.36e7, "resting calcium signal, replicate 2 (fluorescence units)": 1.51e7}
{"predicted target": "Cpr50Ca (GeneID 36523)", "amplicon": "DRSC05454", "calcium entry signal, replicate 1 (fluorescence units)": 4.94e7, "calcium entry signal, replicate 2 (fluorescence units)": 4.68e7, "resting calcium signal, replicate 1 (fluorescence units)": 2.32e7, "resting calcium signal, replicate 2 (fluorescence units)": 2.29e7}
{"predicted target": "Cpr50Ca (GeneID 36523)", "amplicon": "DRSC06372", "calcium entry signal, replicate 1 (fluorescence units)": 3.88e7, "calcium entry signal, replicate 2 (fluorescence units)": 3.72e7, "resting calcium signal, replicate 1 (fluorescence units)": 1.87e7, "resting calcium signal, replicate 2 (fluorescence units)": 1.77e7}
{"predicted target": "Cpr50Ca (GeneID 36523)", "amplicon": "DRSC06375", "calcium entry signal, replicate 1 (fluorescence units)": 3.42e7, "calcium entry signal, replicate 2 (fluorescence units)": 4.64e7, "resting calcium signal, replicate 1 (fluorescence units)": 1.76e7, "resting calcium signal, replicate 2 (fluorescence units)": 2.02e7}
{"predicted target": "CG12116 (GeneID 31782)", "amplicon": "DRSC17812", "calcium entry signal, replicate 1 (fluorescence units)": 4.08e7, "calcium entry signal, replicate 2 (fluorescence units)": 5.02e7, "resting calcium signal, replicate 1 (fluorescence units)": 2.01e7, "resting calcium signal, replicate 2 (fluorescence units)": 2.24e7}
{"predicted target": "Kpc2 (GeneID 37261)", "amplicon": "DRSC07635", "calcium entry signal, replicate 1 (fluorescence units)": 5.97e7, "calcium entry signal, replicate 2 (fluorescence units)": 6.03e7, "resting calcium signal, replicate 1 (fluorescence units)": 2.62e7, "resting calcium signal, replicate 2 (fluorescence units)": 2.84e7}
{"predicted target": "CG15369 (GeneID 31862)", "amplicon": "DRSC18041", "calcium entry signal, replicate 1 (fluorescence units)": 2.75e7, "calcium entry signal, replicate 2 (fluorescence units)": 4.27e7, "resting calcium signal, replicate 1 (fluorescence units)": 1.40e7, "resting calcium signal, replicate 2 (fluorescence units)": 1.97e7}
{"predicted target": "brp (GeneID 35977)", "amplicon": "DRSC06245", "calcium entry signal, replicate 1 (fluorescence units)": 3.80e7, "calcium entry signal, replicate 2 (fluorescence units)": 3.27e7, "resting calcium signal, replicate 1 (fluorescence units)": 1.84e7, "resting calcium signal, replicate 2 (fluorescence units)": 1.65e7}
{"predicted target": "brp (GeneID 35977)", "amplicon": "DRSC06246", "calcium entry signal, replicate 1 (fluorescence units)": 3.86e7, "calcium entry signal, replicate 2 (fluorescence units)": 4.24e7, "resting calcium signal, replicate 1 (fluorescence units)": 1.87e7, "resting calcium signal, replicate 2 (fluorescence units)": 1.95e7}
{"predicted target": "brp (GeneID 35977)", "amplicon": "DRSC06801", "calcium entry signal, replicate 1 (fluorescence units)": 3.55e7, "calcium entry signal, replicate 2 (fluorescence units)": 3.84e7, "resting calcium signal, replicate 1 (fluorescence units)": 1.74e7, "resting calcium signal, replicate 2 (fluorescence units)": 1.71e7}
{"predicted target": "brp (GeneID 35977)", "amplicon": "DRSC21893", "calcium entry signal, replicate 1 (fluorescence units)": 3.55e7, "calcium entry signal, replicate 2 (fluorescence units)": 5.39e7, "resting calcium signal, replicate 1 (fluorescence units)": 1.64e7, "resting calcium signal, replicate 2 (fluorescence units)": 2.70e7}
{"predicted target": "CG34269 (GeneID 5740713)", "amplicon": "DRSC07884", "calcium entry signal, replicate 1 (fluorescence units)": 4.45e7, "calcium entry signal, replicate 2 (fluorescence units)": 4.74e7, "resting calcium signal, replicate 1 (fluorescence units)": 2.49e7, "resting calcium signal, replicate 2 (fluorescence units)": 2.16e7}
{"predicted target": "JhI-21 (GeneID 34624)", "amplicon": "DRSC02161", "calcium entry signal, replicate 1 (fluorescence units)": 4.69e7, "resting calcium signal, replicate 1 (fluorescence units)": 2.35e7}
{"predicted target": "meng (GeneID 33948)", "amplicon": "DRSC02134", "calcium entry signal, replicate 1 (fluorescence units)": 2.61e7, "calcium entry signal, replicate 2 (fluorescence units)": 2.78e7, "resting calcium signal, replicate 1 (fluorescence units)": 1.22e7, "resting calcium signal, replicate 2 (fluorescence units)": 1.20e7}
{"predicted target": "CG3999 (GeneID 41253)", "amplicon": "DRSC15534", "calcium entry signal, replicate 1 (fluorescence units)": 2.88e7, "calcium entry signal, replicate 2 (fluorescence units)": 2.60e7, "resting calcium signal, replicate 1 (fluorescence units)": 1.52e7, "resting calcium signal, replicate 2 (fluorescence units)": 1.48e7}
{"predicted target": "lncRNA:bxd (GeneID 3772220)", "amplicon": "DRSC13176", "calcium entry signal, replicate 1 (fluorescence units)": 4.24e7, "calcium entry signal, replicate 2 (fluorescence units)": 3.27e7, "resting calcium signal, replicate 1 (fluorescence units)": 2.23e7, "resting calcium signal, replicate 2 (fluorescence units)": 1.60e7}
{"predicted target": "CG3638 (GeneID 31071)", "amplicon": "DRSC18533", "calcium entry signal, replicate 1 (fluorescence units)": 4.82e7, "calcium entry signal, replicate 2 (fluorescence units)": 5.68e7, "entry to resting ratio": 2.1, "resting calcium signal, replicate 1 (fluorescence units)": 2.33e7, "resting calcium signal, replicate 2 (fluorescence units)": 2.32e7}
{"predicted target": "CG40341 (retired record) (GeneID 3885621)", "amplicon": "DRSC01767", "calcium entry signal, replicate 1 (fluorescence units)": 2.57e7, "calcium entry signal, replicate 2 (fluorescence units)": 3.69e7, "resting calcium signal, replicate 1 (fluorescence units)": 1.24e7, "resting calcium signal, replicate 2 (fluorescence units)": 1.61e7}
{"predicted target": "CG40341 (retired record) (GeneID 3885621)", "amplicon": "DRSC03750", "calcium entry signal, replicate 1 (fluorescence units)": 3.17e7, "calcium entry signal, replicate 2 (fluorescence units)": 6.88e7, "resting calcium signal, replicate 1 (fluorescence units)": 1.43e7, "resting calcium signal, replicate 2 (fluorescence units)": 2.65e7}
{"predicted target": "ebo (GeneID 47141)", "amplicon": "DRSC18787", "calcium entry signal, replicate 1 (fluorescence units)": 3.58e7, "calcium entry signal, replicate 2 (fluorescence units)": 4.29e7, "resting calcium signal, replicate 1 (fluorescence units)": 1.67e7, "resting calcium signal, replicate 2 (fluorescence units)": 1.90e7}
{"predicted target": "Smyd3 (GeneID 44554)", "amplicon": "DRSC17744", "calcium entry signal, replicate 1 (fluorescence units)": 5.61e7, "calcium entry signal, replicate 2 (fluorescence units)": 5.23e7, "entry to resting ratio": 2.1, "resting calcium signal, replicate 1 (fluorescence units)": 2.67e7, "resting calcium signal, replicate 2 (fluorescence units)": 2.25e7}
{"predicted target": "CG10151 (GeneID 36639)", "amplicon": "DRSC05974", "calcium entry signal, replicate 1 (fluorescence units)": 4.15e7, "calcium entry signal, replicate 2 (fluorescence units)": 4.42e7, "resting calcium signal, replicate 1 (fluorescence units)": 1.74e7, "resting calcium signal, replicate 2 (fluorescence units)": 1.98e7}

In a second layout: entries from further up
| predicted target | amplicon | calcium entry signal, replicate 1 (fluorescence units) | calcium entry signal, replicate 2 (fluorescence units) | entry to resting ratio | resting calcium signal, replicate 1 (fluorescence units) | resting calcium signal, replicate 2 (fluorescence units) |
| --- | --- | --- | --- | --- | --- | --- |
| CG6073 (GeneID 43180) | DRSC22742 | 4.15e7 | 3.68e7 | – | 2.36e7 | 1.91e7 |
| CG7766 (GeneID 31839) | DRSC18424 | 3.15e7 | 3.20e7 | – | 1.36e7 | 1.51e7 |
